The record followed here is PubChem BioAssay AID330 (DTP/NCI, 2004).

The assay deals with P388 leukemia ip, CD2F1 mice, survival T/C. Put plainly: NCI In Vivo Anticancer Drug Screen. Data for tumor model P388 Leukemia (intraperitoneal) in CD2F1 (CDF1) mice. As to conditions: T/C endpoint: median survival time, higher T/C = longer survival.
[1] abbreviates: dose: 240.0 mg/kg/injection, schedule: Q01DX005 (ip), vehicle: saline with Tween-80.
The mark [2] stands for this setting: dose: 6.25 mg/kg/injection, schedule: Q01DX009 (ip), vehicle: distilled water + alcohol.
Where [3] appears, read: dose: 100.0 mg/kg/injection, schedule: Q01DX009 (ip), vehicle: saline.
[4] abbreviates: dose: 200.0 mg/kg/injection, schedule: Q01DX009 (ip), vehicle: saline.
[5] abbreviates: dose: 400.0 mg/kg/injection, schedule: Q01DX009 (ip), vehicle: saline.
[6] abbreviates: dose: 200.0 mg/kg/injection, schedule: Q01DX005 (ip), vehicle: saline with Tween-80.
[7] abbreviates: dose: 100.0 mg/kg/injection, schedule: Q01DX005 (ip), vehicle: saline with Tween-80.
The mark [8] stands for this setting: dose: 400.0 mg/kg/injection, schedule: Q01DX009 (ip), vehicle: saline with Tween-80.
The mark [9] stands for this setting: dose: 50.0 mg/kg/injection, schedule: Q01DX009 (ip), vehicle: saline with Tween-80.
Where [10] appears, read: dose: 100.0 mg/kg/injection, schedule: Q01DX009 (ip), vehicle: saline with Tween-80.
Setting [11] is: dose: 200.0 mg/kg/injection, schedule: Q01DX009 (ip), vehicle: saline with Tween-80.

The list is a part of this screen's results and no random one: it gathers tests that were run many times, whatever their T/C, doses with no T/C, and many T/C values between a quarter and a half above the control. Other doses and runs of a compound stand elsewhere. T/C gives the treated animals as a percentage of the vehicle group. Some entries give survivors of the animals treated and no T/C: the source holds a T/C of zero for them, seemingly a mark for toxic or unscored doses. Some doses without a T/C left all or most animals alive at the check, yet need not have been tolerated: the source hardly ever lists a survival T/C far under the control, and the zero likely stands for such cases as well. Counts of survivors are from the toxicity check (mostly the fifth day) where no day follows; animals may have died later. Schedule codes are those of the source, taken here to give the interval after Q, in days (D) or hours (H), and the number of doses after X. Some doses were run more than once; the values are given in rising order. For survival time, the PubChem record calls one and a half times the control and up active, and a quarter to a half above the control has no call in these data; cut-offs in other NCI protocols can differ. Some T/C values are followed by the survivors on the day toxicity was checked, most often the fifth; without a count, all were alive then.

For `CCOC(=O)/C(Cl)=C(\C)Nc1nc2c(ccc3ccccc32)s1`, the survivor count under setting [1] was 6 of 6.

For `CC(C)(C)CC(C)(C)N[P+](NC(C)(C)CC(C)(C)C)(NC(C)(C)CC(C)(C)C)NC(C)(C)CC(C)(C)C`, the T/C was 140 % of control [5 of 6 alive] (dose: 1.56 mg/kg/injection, schedule: Q01DX009 (ip), vehicle: distilled water + alcohol); 146 % of control (dose: 3.12 mg/kg/injection, schedule: Q01DX009 (ip), vehicle: distilled water + alcohol); 138 % of control under setting [2]. Further, the survivor count was 5 of 6 under setting [2]; 2 of 6 and 4 of 6 (dose: 12.5 mg/kg/injection, schedule: Q01DX009 (ip), vehicle: distilled water + alcohol); 0 of 6 (dose: 25.0 mg/kg/injection, schedule: Q01DX009 (ip), vehicle: distilled water + alcohol); 0 of 6 (dose: 50.0 mg/kg/injection, schedule: Q01DX009 (ip), vehicle: distilled water + alcohol); 0 of 6 (dose: 100.0 mg/kg/injection, schedule: Q01DX009 (ip), vehicle: distilled water + alcohol); 0 of 6 (dose: 200.0 mg/kg/injection, schedule: Q01DX009 (ip), vehicle: distilled water + alcohol).

Take `COc1cccc(/C=C2/C(=O)N(c3ccc([N+](=O)[O-])cc3)N=C2C)c1`: the survivor count is reported as 6 of 6 (dose: 60.0 mg/kg/injection, schedule: Q01DX005 (ip), vehicle: Klucel (hydroxypropylcellulose) (HPC)) and 6 of 6 (dose: 120.0 mg/kg/injection, schedule: Q01DX005 (ip), vehicle: Klucel (hydroxypropylcellulose) (HPC)).

Turning to `COc1ccc(CCN)cc1`, the survivor count was 2 of 6 under setting [3]; 0 of 6 under setting [4]; 0 of 6 under setting [5]; 0 of 6 (dose: 600.0 mg/kg/injection, schedule: Q01DX009 (ip), vehicle: saline).

Consider `ClCCN1c2ccccc2Sc2ccc3ccccc3c21`, for which, under setting [6], the survivor count is recorded as 6 of 6.

Take `CCCCCCCCCCCCn1cc[n+](CC(=O)N(O)Cc2ccccc2)c1C`: the survivor count (dose: 25.0 mg/kg/injection, schedule: Q01DX005 (ip), vehicle: saline with Tween-80) is 0 of 5; the survivor count (dose: 50.0 mg/kg/injection, schedule: Q01DX005 (ip), vehicle: saline with Tween-80) is given as 0 of 5; the survivor count under setting [7] is on record as 0 of 5.

As for `Cc1ccc(-c2c(C)c3c(c(C)c2-c2ccc(C)cc2)-c2ccccc2C3=O)cc1`, for the setting “dose: 400.0 mg/kg/injection, schedule: Q04DX002 (ip), vehicle: saline”, the survivor count was 2 of 6.

With `CC1CC(C)N(C)C(C)C1` (stereo not given), the survivor count (dose: 60.0 mg/kg/injection, schedule: Q01DX005 (ip), vehicle: saline) is 2 of 6; the survivor count (dose: 120.0 mg/kg/injection, schedule: Q01DX005 (ip), vehicle: saline) is recorded as 0 of 6; the survivor count (dose: 240.0 mg/kg/injection, schedule: Q01DX005 (ip), vehicle: saline) is 0 of 6.

For `CC1(C)OC(=O)C(=Cc2ccc([N+](=O)[O-])s2)C(=O)O1`, under setting [8], the survivor count is on record as 1 of 6.

With `CCNC1=CC(=O)c2ncccc2C1=O`, the survivor count (dose: 50.0 mg/kg/injection, schedule: Q01DX009 (ip), vehicle: DMSO) is recorded as 5 of 6.

`CC(=O)c1ccc(N=C(C#N)C2=C(O)c3ccccc3C2=O)cc1`: the survivor count under setting [1] is on record as 2 of 6.

Turning to `O=C(O)c1ccc([N+](=O)[O-])o1`, the survivor count (dose: 200.0 mg/kg/injection, schedule: Q01DX009 (ip), vehicle: Klucel (hydroxypropylcellulose) (HPC)) was 1 of 6.

In the case of `NC(=O)N=Nc1c(F)c(F)c(F)c(F)c1F`, the survivor count under setting [6] is on record as 1 of 5.

For the compound `Cc1ccc2cc3c(ccc4ccccc43)c3c2c1CC3`, the T/C (dose: 12.5 mg/kg/injection, schedule: Q01DX009 (ip), vehicle: saline with Tween-80) is 127 % of control; the T/C (dose: 22.0 mg/kg/injection, schedule: Q01DX009 (ip), vehicle: saline with Tween-80) was 146 % of control; the T/C (dose: 25.0 mg/kg/injection, schedule: Q01DX009 (ip), vehicle: saline with Tween-80) is 136 % of control; the T/C under setting [9] is 132 and 140 % of control; the T/C (dose: 50.0 mg/kg/injection, schedule: Q04DX003 (ip), vehicle: saline with Tween-80) is 140 % of control; the T/C (dose: 75.0 mg/kg/injection, schedule: Q01DX009 (ip), vehicle: saline with Tween-80) is 128 % of control. Also, the T/C reads like this: (dose: 88.0 mg/kg/injection, schedule: Q04DX003 (ip), vehicle: saline with Tween-80) 133 % of control; under setting [10], 136 % of control; (dose: 100.0 mg/kg/injection, schedule: Q04DX003 (ip), vehicle: saline with Tween-80) 131 % of control; (dose: 132.0 mg/kg/injection, schedule: Q04DX003 (ip), vehicle: saline with Tween-80) 133 % of control; under setting [11], 132 % of control; under setting [8], 132 % of control.

Take `CC(=O)NNC(=O)C(Cl)Cl`: the survivor count is listed as 6 of 6 under setting [3] and 0 of 6 under setting [4].

In the case of `O=C(OCC1OC(n2ccc(=S)[nH]c2=O)C(OC(=O)c2ccccc2)C1OC(=O)c1ccccc1)c1ccccc1` (stereo not given), the survivor count under setting [7] was 6 of 6.

Turning to `CC(=O)N(Cc1cnc2nc(N)[nH]c(=O)c2n1)c1ccc(C(=O)NC(CCC(=O)O)C(=O)O)cc1` (stereo not given), the survivor count is recorded as 6 of 6 under setting [4] and 0 of 6 under setting [5].

Regarding `N#CC(=Nc1cccc(F)c1)C1=C(O)c2ccccc2C1=O`, the survivor count under setting [1] is recorded as 5 of 6.

Consider `FC(F)(F)C[P+](c1ccccc1)(c1ccccc1)c1ccccc1`, for which the T/C (dose: 50.0 mg/kg/injection, schedule: Q01DX001 (ip), vehicle: saline) is 137 % of control.

With `Oc1ccc(C2(c3ccc(O)c(Cl)c3)CC3CCC2C3)cc1Cl` (stereo not given), the T/C (dose: 6.25 mg/kg/injection, schedule: Q01DX009 (ip), vehicle: saline with Tween-80) was 126 % of control. Further, the survivor count reads like this: under setting [9], 6 of 6; under setting [10], 5 of 6; under setting [11], 5 of 6.

As to `CC(C)c1ccc(OS(=O)(=O)C(F)(F)C(F)(F)C(F)(F)C(F)(F)F)cc1`, the survivor count under setting [11] was 6 of 6.

For the compound `COc1cccc2c1C(=O)c1c(O)c3c(c(O)c1C2=O)C[C@@](O)(C(C)=O)C[C@@H]3OC1CC(N2CCCCC2)C(O)C(C)O1` (stereo not given in full), the T/C (dose: 3.12 mg/kg/injection, schedule: Q04DX003 (ip), vehicle: distilled water + Tween-80) is 135 % of control and the T/C (dose: 3.12 mg/kg/injection, schedule: Q04DX003 (ip), vehicle: water) was 131 % of control. For the same compound, where the note is “dose: 50.0 mg/kg/injection, schedule: Q04DX003 (ip), vehicle: distilled water + Tween-80”, the survivor count is reported as 6 of 6 on day 9.

For `CCOC(=O)C1CCCCC1NC1CCCCC1C(=O)OCC` (stereo not given), under “dose: 69.0 mg/kg/injection, schedule: Q01DX009 (ip), vehicle: saline with Tween-80”, the T/C is 125 % of control.

Regarding `CC(C)NC1CCC(Nc2ccnc3cc(Cl)ccc23)CC1` (stereo not given), under “dose: 200.0 mg/kg/injection, schedule: Q01DX005 (ip), vehicle: Klucel (hydroxypropylcellulose) (HPC)”, the survivor count was 0 of 6.

For the compound `CC1CN1P(=O)(c1ccccc1)N1CC1C` (stereo not given), the survivor count reads like this: under setting [7], 4 of 6; under setting [6], 0 of 6; (dose: 200.0 mg/kg/injection, schedule: Q01DX005 (ip), vehicle: suspension in saline) 0 of 6.

Take `C#CCCCCCC#CCCCCCC#CC(=O)O`: the survivor count (dose: 400.0 mg/kg/injection, schedule: Q01DX001 (ip), vehicle: saline) is 1 of 6.

For `O=[N+]([O-])c1cnc(/C=N/N2CCN(/N=C/c3ncc([N+](=O)[O-])[nH]3)CC2)[nH]1`, the survivor count by setting is: under setting [10], 6 of 6; under setting [11], 6 of 6.

`OCc1nccn1Cc1ccccc1`: the survivor count (dose: 200.0 mg/kg/injection, schedule: Q01DX001 (ip), vehicle: saline) is given as 2 of 6.
